Structures can show the parent of a compound that is named as a salt. Some entries share one result that the patent states for a list of compounds.
Biological target: T1, CRF receptor (Macaca mulatta, UniProt Q76LL8)
T1 sequence (Q76LL8 24-415): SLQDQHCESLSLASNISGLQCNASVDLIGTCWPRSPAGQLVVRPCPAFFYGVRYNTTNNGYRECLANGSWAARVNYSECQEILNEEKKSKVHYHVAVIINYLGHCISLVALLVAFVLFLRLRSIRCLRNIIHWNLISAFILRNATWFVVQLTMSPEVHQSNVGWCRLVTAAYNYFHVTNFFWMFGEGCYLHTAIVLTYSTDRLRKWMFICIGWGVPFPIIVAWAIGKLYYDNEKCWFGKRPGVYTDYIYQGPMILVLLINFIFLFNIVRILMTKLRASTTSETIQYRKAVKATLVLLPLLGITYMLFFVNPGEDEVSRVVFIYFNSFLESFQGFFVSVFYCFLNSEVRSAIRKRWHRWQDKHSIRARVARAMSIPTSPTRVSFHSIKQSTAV
Test: CRF receptor binding test
Details: monkey amygdala membranes, 125I-CRF (0.2 nM), 25° C. for 2 hours; read-out: IC50 (concentration of the test drug at which binding of 125I-CRF is inhibited by 50%)

With `CCCC(CCC)Nc1cc(C)nc2c(-c3c(C)cc(Br)cc3C)cc(C(N)=O)n12` [Compound 1-001, 8-(4-bromo-2,6-dimethyl-phenyl)-2-methyl-4-(1-propyl-butylamino)-pyrrolo[1,2-a]pyrimidine-6-carboxylic acid amide hydrochloride] the IC50 was ≤ 100 nM.
With `CCCC(CCC)Nc1cc(C)nc2c(-c3c(C)cc(Cl)cc3C)cc(C(N)=O)n12` [Compound 1-002] the IC50 was ≤ 100 nM.
For `CCCC(CCC)Nc1cc(C)nc2c(-c3ccc(C(C)C)cc3Br)cc(C(N)=O)n12` [Compound 1-003], the IC50 was ≤ 100 nM.
With `CCCC(CCC)Nc1cc(C)nc2c(-c3ccc(C(F)(F)F)cc3Br)cc(C(N)=O)n12` [Compound 1-004] the IC50 was ≤ 100 nM.
With `CCC(CC)Nc1cc(C)nc2c(-c3c(C)cc(Br)cc3C)cc(C(N)=O)n12` [Compound 1-006] the IC50 was ≤ 100 nM.
For `CCC(CC)Nc1cc(C)nc2c(-c3ccc(C(C)C)cc3Br)cc(C(N)=O)n12` [Compound 1-007], the IC50 was ≤ 100 nM.
In the case of `Cc1cc(NC(C2CC2)C2CC2)n2c(C(N)=O)cc(-c3c(C)cc(Br)cc3C)c2n1` [Compound 1-008], the IC50 is reported as ≤ 100 nM.
`CC[C@H](COC)Nc1cc(C)nc2c(-c3c(C)cc(Br)cc3C)cc(C(N)=O)n12` [Compound 1-009] was tested, and the IC50 was ≤ 100 nM.
`CC[C@H](COC)Nc1cc(C)nc2c(-c3ccc(C(C)C)cc3Br)cc(C(N)=O)n12` [Compound 1-010] was tested, and the IC50 was ≤ 100 nM.
For `CC[C@@H](COC)Nc1cc(C)nc2c(-c3c(C)cc(Br)cc3C)cc(C(N)=O)n12` [Compound 1-011], the IC50 was ≤ 100 nM.
In the case of `CC[C@@H](COC)Nc1cc(C)nc2c(-c3ccc(C(C)C)cc3Br)cc(C(N)=O)n12` [Compound 1-012], the IC50 is reported as ≤ 100 nM.
For `COCC(COC)Nc1cc(C)nc2c(-c3c(C)cc(Br)cc3C)cc(C(N)=O)n12` [Compound 1-013], the IC50 was ≤ 100 nM.
`Cc1cc(NC(C)CC(C)C)n2c(C(N)=O)cc(-c3c(C)cc(Br)cc3C)c2n1` (centres unmarked) [Compound 1-016] was tested, and the IC50 was ≤ 100 nM.
In the case of `Cc1cc(NC(C)CC(C)C)n2c(C(N)=O)cc(-c3ccc(C(C)C)cc3Br)c2n1` (centres unmarked) [Compound 1-017], the IC50 is reported as ≤ 100 nM.
For `CCCC(C#N)Nc1cc(C)nc2c(-c3c(C)cc(Br)cc3C)cc(C(N)=O)n12` (centres unmarked) [Compound 1-018], the IC50 was ≤ 100 nM.
With `CCCC(CO)Nc1cc(C)nc2c(-c3c(C)cc(Br)cc3C)cc(C(N)=O)n12` (centres unmarked) [Compound 1-019] the IC50 was ≤ 100 nM.
In the case of `CCCC(CC#N)Nc1cc(C)nc2c(-c3c(C)cc(Br)cc3C)cc(C(N)=O)n12` (centres unmarked) [Compound 1-027], the IC50 is reported as ≤ 100 nM.
In the case of `CCCC(CCC)Nc1nc(C)nc2c(-c3c(C)cc(Br)cc3C)cc(C(N)=O)n12` [Compound 2-001], the IC50 is reported as ≤ 100 nM.
In the case of `CCC(CC)Nc1nc(C)nc2c(-c3c(C)cc(Br)cc3C)cc(C(N)=O)n12` [Compound 2-002], the IC50 is reported as ≤ 100 nM.
With `Cc1nc(NC(C2CC2)C2CC2)n2c(C(N)=O)cc(-c3c(C)cc(Br)cc3C)c2n1` [Compound 2-003] the IC50 was ≤ 100 nM.
For `CC[C@H](COC)Nc1nc(C)nc2c(-c3c(C)cc(Br)cc3C)cc(C(N)=O)n12` [Compound 2-004], the IC50 was ≤ 100 nM.
With `CC[C@@H](COC)Nc1nc(C)nc2c(-c3c(C)cc(Br)cc3C)cc(C(N)=O)n12` [Compound 2-005] the IC50 was ≤ 100 nM.
With `COCC(COC)Nc1nc(C)nc2c(-c3c(C)cc(Br)cc3C)cc(C(N)=O)n12` [Compound 2-006] the IC50 was ≤ 100 nM.

Reference: US8106194B2, “Pyrrolopyrimidine and pyrrolotriazine derivatives” (Taisho Pharmaceutical Co., Ltd., priority 2004, dated 2012)
